Assay results from the supplement of paper PMC8728848.
The other results are listed elsewhere or left out.

Tests used:
Test in all cases: glycan array binding signal (z-score within array); higher = stronger binding
Settings in all cases: glycan notation: IUPAC condensed, linker removed
[1] = molecular target: Gal(a1-3)Gal(b1-4)GlcNAc(b1-2)Man
How it was run: (§1)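 Arrays were curated from the Consortium for Functional Glycomics database, 3228 in total, and kept only where the protein sequence was available. Binding is expressed as a within-array Z-score. This score was averaged across arrays of the same protein sequence at different concentrations or buffers and across linkers, and negative values can be read as non-binding.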

[2] = molecular target: Gal(a1-3)Gal(b1-4)GlcNAc(b1-2)Man(a1-3)[Gal(a1-3)Gal(b1-4)GlcNAc(b1-2)Man(a1-6)]Man(b1-4)GlcNAc(b1-4)GlcNAc
How it was run: as §1

[3] = molecular target: Gal(a1-3)Gal(b1-4)GlcNAc(b1-3)GalNAc
How it was run: as §1

[4] = molecular target: Gal(a1-3)Gal(b1-4)GlcNAc(b1-6)GalNAc
How it was run: as §1

[5] = molecular target: Gal(a1-3)Gal(b1-4)[Fuc(a1-3)]GlcNAc
How it was run: as §1

[6] = molecular target: Gal(a1-3)Gal(b1-4)[Fuc(a1-3)]GlcNAc(b1-2)Man(a1-3)[Gal(a1-3)Gal(b1-4)[Fuc(a1-3)]GlcNAc(b1-2)Man(a1-6)]Man(b1-4)GlcNAc(b1-4)GlcNAc
How it was run: as §1

Gal(a1-3)GalNAc = molecular target: Gal(a1-3)GalNAc
How it was run: as §1

[7] = molecular target: Gal(a1-3)[Gal(a1-4)]Gal(b1-4)GlcNAc
How it was run: as §1

[8] = molecular target: Gal(a1-4)Gal(b1-3)GlcNAc(b1-2)Man(a1-3)[Gal(a1-4)Gal(b1-3)GlcNAc(b1-2)Man(a1-6)]Man(b1-4)GlcNAc(b1-4)GlcNAc
How it was run: as §1

Gal(a1-4)Gal(b1-4)Glc = molecular target: Gal(a1-4)Gal(b1-4)Glc
How it was run: as §1

Gal(a1-4)Gal(b1-4)GlcNAc = molecular target: Gal(a1-4)Gal(b1-4)GlcNAc
How it was run: as §1

[9] = molecular target: Gal(a1-4)Gal(b1-4)GlcNAc(b1-2)Man(a1-3)[Gal(a1-4)Gal(b1-4)GlcNAc(b1-2)Man(a1-6)]Man(b1-4)GlcNAc(b1-4)GlcNAc
How it was run: as §1

[10] = molecular target: Gal(a1-4)Gal(b1-4)GlcNAc(b1-3)Gal(b1-4)Glc
How it was run: as §1

Gal(a1-4)GlcNAc = molecular target: Gal(a1-4)GlcNAc
How it was run: as §1

Gal(a1-6)Glc = molecular target: Gal(a1-6)Glc
How it was run: as §1

Gal(b1-2)Gal = molecular target: Gal(b1-2)Gal
How it was run: as §1

Gal(b1-3)Gal = molecular target: Gal(b1-3)Gal
How it was run: as §1

Gal(b1-3)Gal(b1-4)GlcNAc = molecular target: Gal(b1-3)Gal(b1-4)GlcNAc
How it was run: as §1

Gal(b1-3)GalNAc = molecular target: Gal(b1-3)GalNAc
How it was run: as §1

[11] = molecular target: Gal(b1-3)GalNAc(a1-3)[Fuc(a1-2)]Gal(b1-4)Glc
How it was run: as §1

[12] = molecular target: Gal(b1-3)GalNAc(a1-3)[Fuc(a1-2)]Gal(b1-4)GlcNAc
How it was run: as §1

Gal(b1-3)GalNAc(b1-3)Gal = molecular target: Gal(b1-3)GalNAc(b1-3)Gal
How it was run: as §1

[13] = molecular target: Gal(b1-3)GalNAc(b1-3)Gal(a1-4)Gal(b1-4)Glc
How it was run: as §1

[14] = molecular target: Gal(b1-3)GalNAc(b1-4)Gal(b1-4)Glc
How it was run: as §1

[15] = molecular target: Gal(b1-3)GalNAc(b1-4)[Neu5Ac(a2-3)]Gal(b1-4)Glc
How it was run: as §1

Gal(b1-3)GlcNAc = molecular target: Gal(b1-3)GlcNAc
How it was run: as §1

[16] = molecular target: Gal(b1-3)GlcNAc(a1-3)Gal(b1-4)GlcNAc
How it was run: as §1

[17] = molecular target: Gal(b1-3)GlcNAc(a1-6)Gal(b1-4)GlcNAc
How it was run: as §1

Gal(b1-3)GlcNAc(b1-2)Man = molecular target: Gal(b1-3)GlcNAc(b1-2)Man
How it was run: as §1

[18] = molecular target: Gal(b1-3)GlcNAc(b1-2)Man(a1-3)[Gal(b1-3)GlcNAc(b1-2)Man(a1-6)]Man(b1-4)GlcNAc(b1-4)GlcNAc
How it was run: as §1

[19] = molecular target: Gal(b1-3)GlcNAc(b1-2)Man(a1-3)[Gal(b1-3)GlcNAc(b1-2)Man(a1-6)]Man(b1-4)GlcNAc(b1-4)[Fuc(a1-6)]GlcNAc
How it was run: as §1

[20] = molecular target: Gal(b1-3)GlcNAc(b1-2)Man(a1-3)[GlcNAc(b1-4)][Gal(b1-3)GlcNAc(b1-2)Man(a1-6)]Man(b1-4)GlcNAc(b1-4)GlcNAc
How it was run: as §1

[21] = molecular target: Gal(b1-3)GlcNAc(b1-2)[Gal(b1-3)GlcNAc(b1-6)]Man(a1-6)[Gal(b1-3)GlcNAc(b1-2)Man(a1-3)]Man(b1-4)GlcNAc(b1-4)GlcNAc
How it was run: as §1

[22] = molecular target: Gal(b1-3)GlcNAc(b1-3)Gal(b1-3)GlcNAc
How it was run: as §1

[23] = molecular target: Gal(b1-3)GlcNAc(b1-3)Gal(b1-4)Glc
How it was run: as §1

[24] = molecular target: Gal(b1-3)GlcNAc(b1-3)Gal(b1-4)GlcNAc
How it was run: as §1

[25] = molecular target: Gal(b1-3)GlcNAc(b1-3)Gal(b1-4)GlcNAc(b1-2)Man(a1-3)[Gal(b1-3)GlcNAc(b1-3)Gal(b1-4)GlcNAc(b1-2)Man(a1-6)]Man(b1-4)GlcNAc(b1-4)GlcNAc
How it was run: as §1

[26] = molecular target: Gal(b1-3)GlcNAc(b1-3)Gal(b1-4)GlcNAc(b1-2)[Gal(b1-3)GlcNAc(b1-3)Gal(b1-4)GlcNAc(b1-6)]Man(a1-6)[Gal(b1-3)GlcNAc(b1-3)Gal(b1-4)GlcNAc(b1-2)Man(a1-3)]Man(b1-4)GlcNAc(b1-4)[Fuc(a1-6)]GlcNAc
How it was run: as §1

[27] = molecular target: Gal(b1-3)GlcNAc(b1-3)Gal(b1-4)GlcNAc(b1-3)Gal(b1-4)GlcNAc(b1-2)[Gal(b1-3)GlcNAc(b1-3)Gal(b1-4)GlcNAc(b1-3)Gal(b1-4)GlcNAc(b1-6)]Man(a1-6)[Gal(b1-3)GlcNAc(b1-3)Gal(b1-4)GlcNAc(b1-3)Gal(b1-4)GlcNAc(b1-2)Man(a1-3)]Man(b1-4)GlcNAc(b1-4)[Fuc(a1-6)]GlcNAc
How it was run: as §1

[28] = molecular target: Gal(b1-3)GlcNAc(b1-3)Gal(b1-4)GlcNAc(b1-6)[Gal(b1-3)GlcNAc(b1-3)]Gal(b1-4)Glc
How it was run: as §1

[29] = molecular target: Gal(b1-3)GlcNAc(b1-3)Gal(b1-4)[Fuc(a1-3)]GlcNAc
How it was run: as §1

[30] = molecular target: Gal(b1-3)GlcNAc(b1-3)Gal(b1-4)[Fuc(a1-3)]GlcNAc(b1-6)[Gal(b1-3)GlcNAc(b1-3)]Gal(b1-4)Glc
How it was run: as §1

[31] = molecular target: Gal(b1-3)GlcNAc(b1-3)GalNAc
How it was run: as §1

[32] = molecular target: Gal(b1-3)GlcNAc(b1-6)Gal(b1-4)GlcNAc
How it was run: as §1

[33] = molecular target: Gal(b1-3)GlcNAc(b1-6)GalNAc
How it was run: as §1

B1: Langerin K299A/K313A (Homo sapiens), Q9UJ71 (protein)
chain: STLNAQIPELKSDLEKASALNTKIRALQGSLENMSKLLKRQNDILQVVSQGWKYFKGNFYYFSLIPKTWYSAEQFCVSRNSHLTSVTSESEQEFLYKTAGGLIYWIGLTKAGMEGDWSWVDDTPFNKVQSARFWIPGEPNNAGNNEHCGNIAAPSLQAWNDAPCDATFLFICKRPYVPSEP
For B1, the “glycan array binding signal (z-score)” value [1] was -0.928, the “glycan array binding signal (z-score)” value [2] was 1.31 and the “glycan array binding signal (z-score)” value [3] was -1.18. For the same binder, the “glycan array binding signal (z-score)” value [4] was -0.491, the “glycan array binding signal (z-score)” value [5] was -0.587 and the “glycan array binding signal (z-score)” value [6] was 0.892. The “glycan array binding signal (z-score)” value (Gal(a1-3)GalNAc) was -0.531, the “glycan array binding signal (z-score)” value [7] was 0.088 and the “glycan array binding signal (z-score)” value [8] was 0.339. For the same binder, the “glycan array binding signal (z-score)” value (Gal(a1-4)Gal(b1-4)Glc) was 2.29, the “glycan array binding signal (z-score)” value (Gal(a1-4)Gal(b1-4)GlcNAc) was -0.009 and the “glycan array binding signal (z-score)” value [9] was 0.783. The “glycan array binding signal (z-score)” value [10] was 1.5, the “glycan array binding signal (z-score)” value (Gal(a1-4)GlcNAc) was -1.03 and the “glycan array binding signal (z-score)” value (Gal(a1-6)Glc) was -0.08. For the same binder, the “glycan array binding signal (z-score)” value (Gal(b1-2)Gal) was 1.77, the “glycan array binding signal (z-score)” value (Gal(b1-3)Gal) was -0.059 and the “glycan array binding signal (z-score)” value (Gal(b1-3)Gal(b1-4)GlcNAc) was -1.01. The “glycan array binding signal (z-score)” value (Gal(b1-3)GalNAc) was -0.212, the “glycan array binding signal (z-score)” value [11] was -1.18 and the “glycan array binding signal (z-score)” value [12] was -0.852. For the same binder, the “glycan array binding signal (z-score)” value (Gal(b1-3)GalNAc(b1-3)Gal) was 0.002, the “glycan array binding signal (z-score)” value [13] was -0.916 and the “glycan array binding signal (z-score)” value [14] was -0.214. For the same binder, the “glycan array binding signal (z-score)” value [15] was -0.669, the “glycan array binding signal (z-score)” value (Gal(b1-3)GlcNAc) was -0.266 and the “glycan array binding signal (z-score)” value [16] was -0.826. The “glycan array binding signal (z-score)” value [17] was 0.434, the “glycan array binding signal (z-score)” value (Gal(b1-3)GlcNAc(b1-2)Man) was 0.874 and the “glycan array binding signal (z-score)” value [18] was 2.15. The “glycan array binding signal (z-score)” value [19] was 0.26, the “glycan array binding signal (z-score)” value [20] was 1.8 and the “glycan array binding signal (z-score)” value [21] was -0.363. For the same binder, the “glycan array binding signal (z-score)” value [22] was -1.02, the “glycan array binding signal (z-score)” value [23] was -1.06 and the “glycan array binding signal (z-score)” value [24] was -0.981. The “glycan array binding signal (z-score)” value [25] was 0.001, the “glycan array binding signal (z-score)” value [26] was 2.32 and the “glycan array binding signal (z-score)” value [27] was 1.66. The “glycan array binding signal (z-score)” value [28] was 0.104, the “glycan array binding signal (z-score)” value [29] was -0.406 and the “glycan array binding signal (z-score)” value [30] was -1.06. The “glycan array binding signal (z-score)” value [31] was 0, the “glycan array binding signal (z-score)” value [32] was -0.297 and the “glycan array binding signal (z-score)” value [33] was -0.535.
